This is an account of results in patent US20260272801A1, “BIOCATALYTIC SYNTHESIS OF UNNATURAL MYCOSPORINE-LIKE AMINO ACIDS” (University of Florida Research Foundation, Incorporated, priority 2022, published 2026).

This assay deals with MysD. Nature of the assay: In vitro MysD reaction with amino acid substrates (LC-HRMS detection of MAA products). Conditions: 5 mM amino acid, 50 uM mycosporine-glycine, 5 mM ATP, 0.5 uM MysD, pH 8.0, room temperature, 4 hours. The class given is biochemical, Nostoc linckia NIES-25. The protocol: The reaction solution contained 50 mM HEPES, pH 8.0, 10 mM MgCl2, 50 uM mycosporine-glycine (MG), 5 mM amino acid substrates, and 5 mM ATP. The reactions were initiated by adding 0.5 uM MysD and then carried out at room temperature for 4 hours. The reactions were then terminated and centrifuged.
In Vitro MysD Reactions. MG was purified from extracts of E. coli expressing MysAB2C by HPLC and used as the substrate for the MysD reactions. The quality of MG was calculated based on its extinction coefficient (28,100 M^−1cm^−1). The MysD reactions included MG (50 μM), Mg^2+ (10 mM), unnatural amino acid substrates (5 mM), and ATP (5 mM) in 50 mM HEPES, pH 8.0. The reactions were initiated by adding MysD (0.5 μM) and then incubated at room temperature for 4 hours. All reactions were quenched by heat inactivation at 95° C. for 10 min. After centrifugation at 20,000×g for 15 min, the clear supernatants were collected for LC-HRMS analysis.
The reactions were terminated and then analyzed in the HPLC and/or LC-MS analysis.
HPLC and LC-MS Analysis. Samples were analyzed on a Shimadzu Prominence UHPLC system (Kyoto, Japan) coupled with a PDA detector. Unless stated elsewhere, the following HPLC procedure was performed. […]

As for `NCCC[C@H](N)C(=O)O` [L-ornithine], the “use as amino acid substrate by MysD to produce MAA products” value was “could be used by MysD”.
